Data taken from PubChem BioAssay AID1487 (National Center for Advancing Translational Sciences (NCATS), 2009).
The list shows a part of the results. Shown are side measurements of this screen, not its main read-out; they come without a call. Compounds called inactive in the main read-out are mostly missing here. The note in brackets gives the kind of curve behind each potency; many fits are weak.

Experiment: qHTS Assay for Modulators of Lamin A Splicing
Conditions: HeLa LMNA splicing GFP/RFP minigene ratio, 48 h
Method in brief: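 S3 HeLa stable clones carrying a lamin A-EGFP splicing minigene plus DsRed2 were seeded at 600 cells/well in Opti-MEM with 2% FBS, pin-dosed and incubated 48 h at 37°C. Acumen cytometry (488 nm) gave the GFP/RFP total-intensity ratio.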

[1] = measured here: GFP splicing reporter channel
[2] = measured here: RFP viability control channel

Row | SMILES | AC50 [1] | AC50 [2]
1 | CCC(Sc1nc2ccccc2c(=O)n1CCc1ccc(OC)c(OC)c1)C(=O)N(CC)CC (stereo unspecified) | 14.1 µM [falling, single point] | –
2 | CCCN(C(=O)Cn1cnc2onc(-c3ccc(F)cc3)c2c1=O)c1cccc(Cl)c1 | 10 µM [falling, partial curve, poor fit] | –
3 | CCc1cccc(C)c1NC(=S)NCc1ccc2c(c1)cc(C)n2C | 14.1 µM [rising, single point] | 22.4 µM [rising, single point]
4 | Cc1cccc(CNC(=O)CS(=O)(=O)c2cccc3nsnc23)c1 | – | 7.08 µM [rising, partial curve, poor fit]
5 | Nc1nc(-c2ccc(-c3ccccc3)cc2)cs1 | – | 17.8 µM [rising, partial curve, poor fit]
6 | COc1ccc(Cl)cc1NC(=O)c1nn(-c2ccc(C)cc2)c(=O)n(C)c1=O | – | 35.5 µM [falling, single point]
7 | O=C(C1CCC1)N1CCc2cc(S(=O)(=O)NCC3COc4ccccc4O3)ccc21 (stereo unspecified) | – | 28.2 µM [rising, single point]
8 | O=C(COc1ccccc1F)c1ccc(O)cc1O | – | 0.0398 µM [rising, full curve, poor fit]
9 | Cc1cccc(Cn2c(N3CCN(c4ccccc4)CC3)nc3c2c(=O)n(C)c(=O)n3C)c1 | 12.6 µM [rising, partial curve, poor fit] | 17.8 µM [rising, partial curve]
10 | Cc1ccc(SC(C)C(=O)Nc2ccc(S(=O)(=O)N3CCOCC3)cc2)cc1 (stereo unspecified) | – | 2.24 µM [rising, partial curve, poor fit]
11 | CC(C)(C)NC(=O)NC(=O)COC(=O)c1c(F)cccc1Cl | – | 0.00501 µM [rising, full curve, poor fit]
12 | CCOc1ccc2nc(SCC(=O)c3ccccc3)sc2c1 | – | 35.5 µM [rising, single point]
13 | O=C(OCC(=O)N1CCOCC1)c1ccc2c(c1)OCCO2 | – | 31.6 µM [rising, single point]
14 | O=C(Nc1ccc2c(c1)CCCN2C(=O)c1cccs1)c1ccccc1Cl | 0.0251 µM [falling, full curve] | –
15 | CCCc1cc(-c2n[nH]c(=S)n2C(C)c2ccccc2)cs1 (stereo unspecified) | – | 35.5 µM [rising, single point]
16 | Cc1ccc(N2CCOCC2)c2c1C(=O)c1ccccc1C2=O | 1.41 µM [rising, partial curve] | 2.51 µM [rising, partial curve]
17 | COc1ccc(C2SCCN2C(=S)Nc2cccc(Cl)c2)cc1 (stereo unspecified) | – | 14.1 µM [rising, partial curve]
18 | Cc1ccc(SCCNC(=S)Nc2cc(C)cc(C)c2)cc1 | 12.6 µM [rising, partial curve] | 31.6 µM [rising, single point]
19 | c1ccc(-c2noc(CSc3nc4ccccc4o3)n2)cc1 | – | 17.8 µM [rising, single point]
20 | O=C(Cc1sc(Nc2ccccc2)nc1-c1ccccc1)NCc1ccccc1 | 35.5 µM [falling, single point] | 35.5 µM [falling, single point]
21 | Cc1ccc(N2C(=O)CS(=O)(=O)C23C(=O)Nc2ccccc23)cc1C (stereo unspecified) | – | 0.0891 µM [falling, full curve, poor fit]
22 | O=C(CSc1nc2ccccc2s1)Nc1ccc(Cl)c(S(=O)(=O)N2CCOCC2)c1 | – | 12.6 µM [rising, partial curve]
23 | CCn1c(C)c(C2=CCN(S(=O)(=O)c3ccccc3)CC2)c2ccccc21 | – | 15.8 µM [rising, single point]
24 | Cc1ccc(Cl)cc1NC(=O)c1ocnc1C | 3.55 µM [falling, single point] | 3.98 µM [falling, partial curve]
25 | COC(=O)c1c(-c2ccc(C)cc2)csc1NC(=O)Cc1ccc(OC)c(OC)c1 | 11.2 µM [rising, partial curve, poor fit] | 10 µM [rising, partial curve]
26 | COc1ccc(/C=C2/C(=O)N(c3nc4ccccc4s3)N=C2CSc2ccc(Cl)cc2)cc1 | – | 17.8 µM [rising, single point]
27 | COc1cccc(-n2nnnc2SCC(=O)c2ccc(NC(C)=O)cc2)c1 | 2.82 µM [falling, partial curve] | 2.24 µM [falling, partial curve]
28 | CCN1CCN(CC(=O)c2ccc(OC)cc2)CC1 | – | 0.501 µM [rising, full curve, poor fit]

Row | SMILES | AC50 [1] | AC50 [2]
29 | COc1ccc(/C=C/C(=O)c2c(O)ccc3c(C)cc(=O)oc23)cc1 | 35.5 µM [falling, single point] | 3.16 µM [falling, single point]
30 | COc1ccc(O)c(C(=O)c2cc(C#N)c(=O)n(CC3CCCO3)c2)c1 (stereo unspecified) | – | 35.5 µM [falling, partial curve, poor fit]
31 | N#Cc1cccc(-c2cc(NCc3cccs3)ncn2)c1 | – | 0.158 µM [falling, full curve, poor fit]
32 | O=C(Nc1ccc2nc(SCc3ccc(Cl)cc3)sc2c1)c1ccccc1C(=O)N1CCOCC1 | 35.5 µM [falling, single point] | 35.5 µM [falling, single point]
33 | NC(=O)C1C(c2ccccc2)=C1c1ccccc1 | 12.6 µM [rising, single point] | 25.1 µM [rising, single point]
34 | CC(=O)c1ccc(NC(=O)c2ccc(S(=O)(=O)c3ccccc3)cc2)cc1 | – | 17.8 µM [rising, single point]
35 | O=C(N/N=C/c1ccc(OC2CSC2)cc1)c1ccccc1 | 7.08 µM [falling, partial curve, poor fit] | 7.94 µM [falling, partial curve]
36 | CCOc1ccccc1N1CCN(C(=O)C2c3ccccc3Oc3ccccc32)CC1 | 35.5 µM [falling, single point] | 35.5 µM [falling, single point]
37 | O=C(Nc1ccc2c(c1)OCO2)c1ccc(COc2ccc3c(c2)CCC3)o1 | – | 8.91 µM [rising, partial curve, poor fit]
38 | Cc1cccc(Cc2nnc(CCC(=O)N(C)C3CCOC3)o2)c1 (stereo unspecified) | – | 0.0447 µM [falling, full curve, poor fit]
39 | COc1ccc2c(=O)c(C(=O)NCCc3ccc(OC)c(OC)c3)c[nH]c2c1 | – | 7.94 µM [rising, partial curve, poor fit]
40 | COc1cc(C2Nc3ccc4ncccc4c3C3=C2C(=O)CCC3)cc(OC)c1O (stereo unspecified) | – | 3.16 µM [rising, single point]
41 | CCCCNc1ccc(S(=O)(=O)c2cccc([N+](=O)[O-])c2)cc1[N+](=O)[O-] | 17.8 µM [rising, single point] | 20 µM [rising, partial curve]
42 | O=C(NCC(c1ccco1)N1CCN(c2ccc(F)cc2)CC1)OCc1ccccc1 (stereo unspecified) | – | 35.5 µM [rising, single point]
43 | CCN(C(=O)CN1C(=O)c2ccccc2Sc2ccc(C(=O)OC)cc21)c1cccc(C)c1 | – | 11.2 µM [rising, partial curve]
44 | O=C(O/N=C\c1ccc(N2CCCCC2)c([N+](=O)[O-])c1)c1cccc(C(F)(F)F)c1 | – | 5.62 µM [rising, single point]
45 | COc1ccc(C(=O)c2ccccc2O)c(O)c1 | 0.0355 µM [falling, full curve, poor fit] | 14.1 µM [rising, single point]
46 | Cc1nc(C)c(C(=O)NCc2ccccc2Cl)o1 | 10 µM [rising, partial curve, poor fit] | 12.6 µM [rising, partial curve]
47 | Cc1nc(C)c(C(=O)Nc2ccc(Oc3ccccc3)cc2)o1 | – | 3.98 µM [rising, partial curve]
48 | CC1CC(C)CN(c2ncnc3c2cnn3Cc2ccc(Cl)cc2)C1 (stereo unspecified) | 28.2 µM [rising, single point] | 31.6 µM [rising, single point]
49 | Cc1c(NS(=O)(=O)c2cccs2)c(=O)n(-c2ccccc2)n1C | – | 3.98 µM [falling, partial curve, poor fit]
50 | Cc1c(C(=O)N2CCN(c3ccc(C(F)(F)F)cn3)CC2)oc2ccccc12 | – | 35.5 µM [rising, single point]
51 | Cn1c(=O)n(CCOc2ccccc2Cl)c2ccccc21 | 17.8 µM [rising, partial curve, poor fit] | 20 µM [rising, partial curve, poor fit]
52 | CC(C)C1CC(=O)NC(SCC(=O)Nc2ccc(Br)cc2)=C1C#N (stereo unspecified) | 8.91 µM [rising, partial curve] | 12.6 µM [rising, partial curve]
53 | Cc1ccc2ccc3cc(C(=O)N4CCN(c5ccccc5F)CC4)nc3c2[nH]1 | 0.0141 µM [falling, full curve, poor fit] | 0.0112 µM [falling, full curve, poor fit]
54 | Cc1cccc(-c2nc(SCc3cc(=O)c4c(C)cc(C)cc4[nH]3)n[nH]2)c1 | – | 35.5 µM [falling, single point]
55 | Clc1ccc(C2=Nn3c(nnc3-c3n[nH]c4c3CCC4)SC2)cc1Cl | 35.5 µM [falling, single point] | 35.5 µM [falling, single point]
